Amino acid sequences for entries named in this document (tags omitted).
UniProt Q03431, whole entry, looked up: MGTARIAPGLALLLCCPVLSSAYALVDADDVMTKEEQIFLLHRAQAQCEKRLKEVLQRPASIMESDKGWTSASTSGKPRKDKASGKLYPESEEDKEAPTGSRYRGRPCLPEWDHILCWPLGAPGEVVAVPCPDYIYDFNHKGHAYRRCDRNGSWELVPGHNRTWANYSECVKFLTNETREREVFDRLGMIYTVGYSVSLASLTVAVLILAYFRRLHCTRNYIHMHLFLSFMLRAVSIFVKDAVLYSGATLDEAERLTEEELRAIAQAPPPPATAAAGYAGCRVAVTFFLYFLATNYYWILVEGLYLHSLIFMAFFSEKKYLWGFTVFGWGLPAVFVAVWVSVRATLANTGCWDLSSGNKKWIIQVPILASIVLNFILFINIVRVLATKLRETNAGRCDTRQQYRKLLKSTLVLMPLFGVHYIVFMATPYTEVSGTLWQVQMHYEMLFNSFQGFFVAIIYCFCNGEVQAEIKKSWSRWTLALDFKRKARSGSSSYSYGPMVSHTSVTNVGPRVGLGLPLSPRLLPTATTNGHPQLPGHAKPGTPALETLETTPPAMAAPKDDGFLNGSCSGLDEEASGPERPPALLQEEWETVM

Hit rate of the full screen: of about 410,000 compounds, about 310 (0.076%) were called active. Inconclusive results, whose numbers are uncertain, are shown with a selection of clear calls. Calls follow the shape of the dose curve; as a rule, active = well fitted activation curve with a large enough effect; inconclusive = small, poorly fitted or top-dose-only effect, or another doubt; inactive = no such curve, though single readings can be large or run the other way. Potencies beside an inconclusive call are fits to weak or partial responses and may not hold up.
Each molecule was assayed against Parathyroid hormone/parathyroid hormone-related peptide receptor (Homo sapiens) (UniProt Q03431) (assay: qHTS for PTHR1 Agonists: Primary Screen). Conditions: HEK293 GP2 PTHR1 cells, GloSensor cAMP luminescence, 1 h; activation: at 115 µM (top of the series) unless noted; series mostly up to 115 µM.
How it was run: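 HEK-293-derived GP2 cells expressing PTHR1 and a GloSensor cAMP reporter, 3,000/well, plated overnight, given luciferin plus IBMX (each 0.5 mM as added) for 1 h at 37 °C, then compound for 1 h at 37 °C. Luminescence was read after 15 min at room temperature.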
With `NC(=O)C1(N2CCCCC2)CCN(c2nc(-c3ccc(Br)cc3)cs2)CC1` the activation was inconclusive: -13.7% [activator] [at 57.5 µM]. With `CCCOc1ccc(C(=O)N/N=C/c2ccc(-c3ccc(S(=O)(=O)Nc4ncccn4)cc3)o2)cc1` the Potency was inconclusive: 0.708 µM [activator, partial curve, poor fit]. In the case of `CCOc1ncccc1C(=O)OCC(=O)c1ccc(OC)c(OC)c1`, the Potency is reported as inconclusive: 39.8 µM [activator, partial curve]. In the case of `CC(C)Oc1ccc(C2CC(=O)N(c3cccc(Br)c3)C2=O)cc1` (stereo unspecified), the Potency is reported as “inactive”. For `O=c1cc(CSc2nc3ccccc3[nH]2)c2ccccc2[nH]1`, the Potency was “inactive”. In the case of `Cc1cccc(N2CCN(C(=O)C3CCN(c4ncnc5c4nc4n5CCCCC4)CC3)CC2C)c1` (stereo unspecified), the Potency is reported as “inactive”. With `COc1ccc(Nc2c[nH]c(=O)[nH]c2=O)cc1` the Potency was “inactive”. `NC(=O)[C@H]1CC2(CC(c3cccc(NC(=O)COc4ccc(Cl)cc4)c3)=NO2)CN1C(=O)CC(c1ccccc1)c1ccccc1` (stereo partly specified) was tested, and the Potency was “inactive”. For `Cc1ccc(-n2nc(C)c(C(=O)O)c2-n2cccc2)cc1`, the Potency was inconclusive: 126 µM [activator, single point]. With `O=C(CCc1ccccc1Cl)NC1CCCN(c2ccc(C(F)(F)F)cn2)C1` (stereo unspecified) the Potency was inconclusive: 126 µM [activator, single point]. `O=C(CNCc1ccco1)Nc1cc(S(=O)(=O)N2CCOCC2)ccc1N1CCCC1` was tested, and the Potency was inconclusive: 126 µM [activator, single point]. For `Cn1c(C(=O)NCCN2CCN(c3ccccc3F)CC2)cc2c(=O)n(C)c3ccccc3c21`, the Potency was “inactive”. With `O=C(NC1(C(F)(F)F)NC(=O)N(Cc2ccccc2)C1=O)c1cccs1` (stereo unspecified) the activation was inconclusive: -61.3% [activator] [at 57.5 µM]. With `CCN(CC(=O)NCc1ccc(Cl)cc1)C(=O)NCc1ccc(Cl)cc1` the Potency was “inactive”. With `CCCC(=O)Nc1nc(C)c(-c2csc(Nc3cc(OC)ccc3OC)n2)s1` the Potency was inconclusive: 70.8 µM [activator, partial curve, poor fit]. `COc1ccc(CNc2cc(C)ccn2)cc1` was tested, and the Potency was inconclusive: 44.7 µM [activator, partial curve, poor fit]. With `Cc1ccc(S(=O)(=O)N2CCN(C(=O)c3c(C)nn(-c4ccccc4)c3Cl)CC2)cc1` the Potency was “inactive”. In the case of `Cc1nc(SCC(=O)Nc2nsc(-c3ccc(C(C)(C)C)cc3)n2)c2c3c(sc2n1)CCCC3`, the Potency is reported as inconclusive: 158 µM [activator, single point]. With `CCc1nc(N2CCCC2C(=O)O)c2oc3ccccc3c2n1` (stereo unspecified) the Potency was inconclusive: 15.8 µM [activator, partial curve, poor fit]. With `Cc1ccc(C(=O)ON=C2CCN(c3ccc([N+](=O)[O-])cc3)CC2)cc1` the Potency was inconclusive: 6.31 µM [activator, partial curve, poor fit]. For `Cc1cn([C@H](C(=O)NCCCCCCCCCCC(=O)N2CCNCC2)[C@@H](C)O)nn1`, the activation was inconclusive: 32.8% [activator]. `COCCNC(=O)C1(C)CCCN(C(=O)c2ccc(N(C)C)cc2)C1` (stereo unspecified) was tested, and the Potency was inconclusive: 44.7 µM [activator, partial curve, poor fit]. In the case of `CSc1nc2c(sc3ccccc32)c(=O)n1Cc1ccc(C)cc1`, the Potency is reported as “inactive”. With `COc1ccc(C(=O)Nc2cc(-c3nc4ccccc4s3)ccc2OC)cc1` the Potency was inconclusive: 79.4 µM [activator, single point]. `O=C1NC[C@H](CCCCN2C[C@H](Cc3ccccc3)N(CCc3ccc(O)cc3)C(=O)C2=O)N(CC2CCCCC2)C1=O` was tested, and the Potency was “inactive”. With `COc1ccc(OC)c(N2C(=O)CC(Cc3cc(C)cc(C)c3)C2=O)c1` (stereo unspecified) the Potency was inconclusive: 35.5 µM [activator, single point]. With `O=C(CSc1nc2[nH]c(=O)cc(O)c2s1)Nc1ccc(Br)cc1` the Potency was inconclusive: 50.1 µM [activator, partial curve, poor fit]. For `CC(=O)N1CC(=O)N=C1SCC(=O)Nc1nc(-c2ccccc2)c(-c2ccccc2)s1`, the Potency was “inactive”. `CC1CCc2c(sc3ncn4c(SCC(=O)NCc5ccco5)nnc4c23)C1` (stereo unspecified) was tested, and the Potency was inconclusive: 4.47 µM [activator, full curve, poor fit]. In the case of `Nc1ncccc1OCc1ccc(Cl)c(Cl)c1`, the activation is reported as inconclusive: -76.4% [activator]. In the case of `COC(=O)c1cc(S(=O)(=O)NCC2CCN(CCc3cccs3)CC2)cn1C`, the activation is reported as inconclusive: 41.9% [activator]. `COC(=O)c1ccc(N)cc1O` was tested, and the Potency was “inactive”. With `S=C(NCc1ccccc1)Nc1cccc(Cl)c1` the Potency was “inactive”. With `CCC(Sc1ncnc2c1nnn2-c1ccc(F)cc1)C(=O)OC` (stereo unspecified) the Potency was “inactive”. In the case of `COc1ccc(C2c3c(ccc4ccccc34)Oc3ncn4nc(CO/N=C/c5ccccc5)nc4c32)cc1` (stereo unspecified), the Potency is reported as inconclusive: 1.41 µM [activator, partial curve, poor fit]. In the case of `COc1ccccc1C(=O)Nc1ccnn1C1CCN(Cc2ncc[nH]2)CC1`, the Potency is reported as inconclusive: 17.8 µM [activator, partial curve, poor fit]. `O=C(NC(=S)NCc1cccnc1)c1ccccc1` was tested, and the Potency was “inactive”. With `N=C1/C(=C\c2ccc(Br)o2)C(=O)N=C2SC(CC(=O)N3CCOCC3)=NN12` the Potency was inconclusive: 15.8 µM [activator, partial curve]. For `Cc1nc2ccccc2n1C(=O)N1CCOCC1`, the Potency was inconclusive: 3.98 µM [activator, partial curve]. With `O=C(COCc1cc(-c2ccc(F)cc2)on1)Nc1cc(F)ccc1F` the Potency was inconclusive: 44.7 µM [activator, single point]. With `NC(=S)Nc1cccc2cc3ccccc3cc12` the Potency was “inactive”. With `Cc1ccn2c(=O)cc(COc3cccc(NC(=O)Nc4cccc(Cl)c4C)c3)nc2c1` the Potency was “inactive”. For `O=C(CSc1nnc(-c2ccccc2F)o1)N1CCCC1`, the Potency was “inactive”. `C=CCNC(=S)NCc1ccccc1` was tested, and the Potency was inconclusive: 126 µM [activator, single point]. For `CNC[C@H](CC1CCCCC1)NC[C@H](CO)NCC1(c2ccccc2)CC1`, the Potency was “inactive”. In the case of `COc1ccc(N2CCN(S(=O)(=O)c3ccc(C(=O)NC4CCCC4)cc3)CC2)cc1`, the Potency is reported as inconclusive: 39.8 µM [activator, partial curve, poor fit].

— PubChem BioAssay AID743266 (National Center for Advancing Translational Sciences (NCATS), 2014)
Also: nearly all actives have a fitted effect of over 55% in size.
Potency is read from the fitted curve at half-maximal effect.
